PubChem BioAssay AID1259307 – Sanger Institute, 2017
Shown is one part, drawn at random, of 794 deposited reagents. 15 of all reagents (1.9%) were called active. 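Calls reflect lethality without any drug; synergy scores did not enter the calls.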 No viability above 1 is reported: the scale is capped. Further read-outs or replicates are left out here. Not given: the amount of reagent, the time to read-out.

- Screen: 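siRNA kinome screen seeking kinases whose loss harms SW620 cells alone or with drugs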 (primary screen)
- Cell system: SW620 colorectal cancer cells
- Reagents: siRNA pool against human genes
- Treatment: anchor drugs BYL719 at 1 µM, cetuximab at 5 µg/ml or trametinib at 10 nM, each beside a DMSO vehicle arm
- Measurement: 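Cell viability in each well relative to non-targeting controls, averaged over replicates and turned into a robust z-score; synergy with BYL719 (1 µM), cetuximab (5 µg/ml), trametinib (10 nM) versus DMSO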
- Reading the numbers: viability robust z-score, no drug and viability vs control, no drug: higher = more viable cells
- Hit rule: 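Essential when the viability robust z-score without drug is under -3; synergy scores are ignored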
- Meaning of the calls: active = essential (lethal alone); inactive = no change alone

GUK1: viability robust z-score, no drug = -0.423; viability vs control, no drug = 0.893; call = inactive
NIM1K: viability robust z-score, no drug = 0.136; viability vs control, no drug = 0.945; call = inactive
CDK15: viability robust z-score, no drug = 0.732; viability vs control, no drug = 1; call = inactive
STK32A: viability robust z-score, no drug = 0.677; viability vs control, no drug = 0.995; call = inactive
CDK14: viability robust z-score, no drug = 0.736; viability vs control, no drug = 1; call = inactive
ACVR1C: viability robust z-score, no drug = 0.736; viability vs control, no drug = 1; call = inactive

The list goes on (2 carried over from the part before).
CDK14: viability robust z-score, no drug = 0.736; viability vs control, no drug = 1; call = inactive
ACVR1C: viability robust z-score, no drug = 0.736; viability vs control, no drug = 1; call = inactive
LMTK3: viability robust z-score, no drug = 0.174; viability vs control, no drug = 0.948; call = inactive
NEK10: viability robust z-score, no drug = 0.73; viability vs control, no drug = 0.999; call = inactive
STK40: viability robust z-score, no drug = 0.736; viability vs control, no drug = 1; call = inactive
MUSK: viability robust z-score, no drug = -0.467; viability vs control, no drug = 0.889; call = inactive
EPHA7: viability robust z-score, no drug = 0.736; viability vs control, no drug = 1; call = inactive
NR2F2: viability robust z-score, no drug = 0.0948; viability vs control, no drug = 0.941; call = inactive
